Some of the results follow. Repeats are few or missing, and single values can be far off.
Columns and labels:
[1] = tested on: MEPP (mouse ovarian epithelium Trp53/Pten KO); assay: cell viability relative to untreated (fraction); higher = less growth inhibition; conditions: 5 µM; 3 days
[2] = tested on: PREPP (mouse prostate epithelium Trp53/Pten KO); assay: as above; conditions: 5 µM; 3 days

| SMILES | cell viability [1] | cell viability [2] |
| --- | --- | --- |
| CC(C)=CCC[C@](C)(O)[C@H]1CC[C@]2(C)[C@@H]1[C@H](O)C[C@@H]1[C@@]3(C)CC[C@H](O[C@@H]4O[C@H](CO)[C@@H](O)[C@H](O)[C@H]4O)C(C)(C)[C@@H]3CC[C@]12C | 0.993 | 1.07 |
| c1cc2c(cc1[C@H]1OC[C@H]3[C@@H]1CO[C@@H]3c1ccc3c(c1)OCO3)OCO2 | 1.72 | 0.946 |
| CC=Cc1cc(OC)c(OC)cc1OC | 0.906 | 0.875 |
| CCNc1nc(Cl)nc(NC(C)C)n1 | 1.15 | 0.944 |
| CC(C)[C@]12O[C@H]1[C@@H]1O[C@@]13[C@@]1(C)CCC4=C(COC4=O)[C@@H]1C[C@@H]1O[C@@]13C2=O | 0.576 | 0.57 |
| CC(=O)O[C@H]1C(=O)[C@@]2(C)[C@H]([C@H](OC(=O)c3ccccc3)[C@]3(O)C[C@H](O)C(C)=C1C3(C)C)[C@]1(OC(C)=O)CO[C@@H]1C[C@@H]2O | 0.867 | 0.881 |
| C=C[C@@H]1C2=CCOC(=O)C2=CO[C@H]1O[C@@H]1O[C@H](CO)[C@@H](O)[C@H](O)[C@H]1O | 1.1 | 1.11 |
| O=C(Nc1ccccc1)Nc1ccnc(Cl)c1 | 1.23 | 0.916 |
| CC[C@@H](C(=O)[C@@H](C)[C@@H](O)[C@H](C)[C@@H]1O[C@@H]([C@@H](CC)C(=O)O)CC[C@@H]1C)[C@H]1O[C@]2(C=C[C@@H](O)[C@]3(CC[C@@](C)([C@H]4CC[C@](O)(CC)[C@H](C)O4)O3)O2)[C@H](C)C[C@@H]1C | 0.607 | 0.292 |
